# Results from the supplement of paper PMC10338343.
# ± gives the standard deviation. Only a part is listed here, and it is no random draw. Many entries were measured with a wide error.
# Test system: MILI (PIWIL2) piRISC loaded with L1MC piRNA (26 nt)
# Test: pre-steady-state target cleavage rate (min^-1); MIWI and MILI are mouse PIWI proteins and EfPiwi is from a freshwater sponge; tags in brackets are library labels; higher = faster piRNA-guided slicing of the target
# Details: guide: L1MC piRNA 5'p-UAACUAAAUACUAUGCAAGCUGUAGG; auxiliary factor: 500 nM mouse GTSF1
# Procedure: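 Cleave-'n-Seq: a library of target RNAs (target site embedded in constant flanks, ACAGCATTCCGCGTTAGTGATATCCG... 5' flank; DNA-blocked outside the site) at 0.1 nM was incubated with 1 nM active mouse MILI or MIWI piRISC (synthetic 5'-monophosphorylated piRNA guide) with or without 500 nM mouse GTSF1 at 33 °C for 1 min to 16 h. Uncleaved targets were sequenced and normalised to non-target controls, and the pooled three trials were fitted to a burst-and-steady-state model to give the pre-steady-state cleavage rate (min^-1; k3 is constrained to at most 1e-4). Sequence is the target site only; target names encode pairing extent (gX:gY) and contiguous / 1-mismatch / 2-mismatch / bulge geometry. Fits with R² ≤ 0 are excluded.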
row,Sequence,pre-steady-state target cleavage rate
1,UCCUCCUUGUGCUUGCAUAGUAUUUAGUUA,0.157 ± 0.012
2,UCCUGGAUGUGCUUGCAUACUAAUUAGUUA,0.00944 ± 0.0038
3,UCCUGGUACACGUUGCAUAGUAUUUUCAAA,0.02 ± 0.011
4,UCCUGGAUGUCCUUGCAAAGUAUAUAGUUA,0.0544 ± 0.014
5,UCCUGGAUGUCGAACGUUAAGUAUUUAGUUA,0.000351 ± 0.02
6,UCCUCCUACAGCUUGCAGAGUAUUUAGUUA,0.218 ± 0.021
7,UCCUGGAACAGCUUGCACAGUAUUUAGUUA,0.169 ± 0.014
8,UCCUGGUACAGCUUGCAUAGUCUUUAGUUA,0.152 ± 0.025
9,UCCUGGAUGAGCUUGCUAUGUAUUUAGUAA,0.00283 ± 0.0044
10,UCCUGGAUGUCGUUGCAUAUAUUUAGUUA,0.000524 ± 0.015
11,UCCUGGUACAGGUUGCAUACUAUUUAGUUA,0.111 ± 0.033
12,UCCUGGAUGUCGAAGCAUAGUUUUUUGUUA,0.00147 ± 0.0069

# Same assay, conditions: guide: L1MC piRNA 5'p-UAACUAAAUACUAUGCAAGCUGUAGG; auxiliary factor: none (no GTSF1)
row,Sequence,pre-steady-state target cleavage rate
1,UCCUGGAUGAGCUACGAUAGUAUUUAGAAA,0.000106 ± 0.032
2,UCCUCCUUGUGCUUGCAUAGUAUUUAGUUA,0.00963 ± 0.002
3,UCCUGGAUGUCCUUGCAUAGAAAUUAGUUA,0.00159 ± 0.0029
4,UCCUGGAUGUGCUUGCAUACUAAUUAGUUA,0.00161 ± 0.0047
5,UCCUGGUACACGUUGCAUAGUAUUUUCAAA,0.00224 ± 0.0051
6,UCCUGGUACAGCUUGCAUUGUAAUUAGUUA,0.00368 ± 0.0037
7,UCCUGGAUGUCCUUGCAAAGUAUAUAGUUA,0.00539 ± 0.002
8,UCCUGGAUGUCGAUCCAUUGUAUUUAGUUA,< 0.0001
9,UCCUGGAUGUCGAACGUUAAGUAUUUAGUUA,0.00027 ± 0.013
10,UCCUGCUACAGCUUGCAUAGUAUUGUAGUUA,0.00114 ± 0.0077
11,UCCUGGAACAGCUUGGAUAGUAUUUUCAAA,0.000511 ± 0.011
12,UCCUGGAACAGCUUGCAUACUAUUUACAAA,0.00101 ± 0.0053
13,UCCUCCUACAGCUUGCAGAGUAUUUAGUUA,0.00823 ± 0.0022
14,UCCUGGAACAGCUUGCACAGUAUUUAGUUA,0.0128 ± 0.003
15,UCCUCCUACAGCUUGCAUAGAAUUUUCAAA,0.000769 ± 0.0063
16,UCCUGCUAGUGCUUGCAUAGUAUUUAGAAA,0.000523 ± 0.0091
17,UCCUGGUACAGCUUGCAUAGUCUUUAGUUA,0.00831 ± 0.003
18,UCCUGGAUGAGCUUGCUAUGUAUUUAGUAA,0.00172 ± 0.0037
19,UCCUGGAUGAGCUUGCAUACUAAUUAGUUA,0.00154 ± 0.0043
20,UCCUGGAUGUCGUUGCAUAUAUUUAGUUA,0.000179 ± 0.016
21,UCCUGGUACAGGUUGCAUACUAUUUAGUUA,0.00543 ± 0.0028
22,UCCUGCUACAGGUUGCAUAGUAUUUACAAA,0.00156 ± 0.0042
23,UCCUGGAUGAGCUUGCAUAGUAAAUAGAAA,0.000587 ± 0.012
24,UCCUGGAUGUCGAACGUUUAGUAUUUAGUUA,0.000499 ± 0.01
25,UCCUGGAUGAGGUUCCAUAGUAUUUAGUUA,0.000492 ± 0.016
26,UCCUGGAACAGGUUGCAUAGUAUUUACAAA,0.00102 ± 0.004
27,UCCUGGAUGUCGAAGCAUAGUUUUUUGUUA,0.000612 ± 0.0076
28,UCCUGGAUGACGAUGCAUAGUAUUUAGUUA,0.00304 ± 0.0031
